# Test results reported in PubChem BioAssay AID2685 (National Center for Advancing Translational Sciences (NCATS), 2010).
# Some of the results follow. The main result of the screen is listed elsewhere. These columns were measured beside it and carry no call. The list favours compounds with an active or inconclusive main result. The note in brackets gives the kind of curve behind each potency; many fits are weak.
# Assay: qHTS Assay for Lipid Storage Modulators in Drosophila S3 Cells;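 on cell number change: cells counted by Cell Tracker Red CMTPX staining in the red channel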
# Settings: BODIPY lipid droplet fluorescence, 18-24 h; for cell number change: measured here: cell count max response, cells fed with added oleic acid
# How it was run: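 Laser-scanning cytometry quantifies lipid droplet accumulation (500–530 nm total intensity; droplet/cell object ratio) in oleic acid-fed (400 uM added) Drosophila S3 cells treated with a concentration series. 20 uM Triacsin C defined 100% inhibition.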
# [1] = measured here: lipid fluorescence (Fed channel) AC50, cells fed with added oleic acid
# [2] = measured here: cell number channel AC50, cells fed with added oleic acid
compound,measurement,setting,value
CCCCN(Cc1cccs1)S(=O)(=O)c1csc(C(N)=O)c1,cell number change,,-18.1%
same,AC50,[1],"29.1 µM [rising, single point]"
COC(=O)c1cccc(C23CC4(C2)[C@H](CN(CC2CCCCC2)[C@@H]4c2ccccc2)C3c2ccccc2)c1 (stereo partly drawn),cell number change,,-64.8%
same,AC50,[2],"20.6 µM [falling, partial curve]"
same,AC50,[1],"16.4 µM [falling, partial curve, poor fit]"
COc1ccc(C(=O)Nc2cc(-c3ccccc3)nn2-c2ccccc2F)cc1,cell number change,,41.2%
same,AC50,[2],"18.4 µM [rising, partial curve]"
same,AC50,[1],"16.4 µM [rising, partial curve]"
COC(=O)c1ccc(CN2CCCC(C(=O)Nc3ccc(-c4ccn[nH]4)cc3)C2)cc1 (stereo not drawn),cell number change,,49.6%
same,AC50,[2],"2.91 µM [rising, full curve]"
same,AC50,[1],"18.4 µM [rising, partial curve]"
CC(C)(C)NC(=O)NC(=O)COC(=O)c1ccc(OC(F)(F)F)cc1,cell number change,,-33.2%
same,AC50,[2],"14.6 µM [falling, single point]"
same,AC50,[1],"16.4 µM [falling, single point]"
CC1=C(C(=O)OC(C)C)C(c2ccc(Br)s2)NC(=O)N1 (stereo not drawn),cell number change,,-18.6%
same,AC50,[1],"16.4 µM [rising, partial curve]"
CCN1CCN(c2ccc(S(=O)(=O)N3CCOCC3)cc2NC(=O)c2sccc2C)CC1,cell number change,,36.2%
same,AC50,[2],"9.2 µM [rising, partial curve, poor fit]"
same,AC50,[1],"2.91 µM [rising, full curve, poor fit]"
O=S(=O)(Nc1cccc(-c2cn3cccnc3n2)c1)c1ccc(F)cc1,cell number change,,15.6%
O=C(NCc1ccco1)/C(=C/c1cccnc1)NC(=O)c1cccc(Br)c1,cell number change,,-14.8%
same,AC50,[1],"0.092 µM [falling, full curve, poor fit]"
O=S(=O)(NC1=NCCC1)c1ccc(F)cc1,AC50,[1],"23.1 µM [falling, partial curve]"
Clc1ccc2oc(-c3cccnc3NCc3ccccc3)nc2c1,cell number change,,2.99%
same,AC50,[2],"0.0461 µM [rising, single point]"
same,AC50,[1],"0.651 µM [rising, partial curve, poor fit]"
CC(=O)N1CCOc2ccc(S(=O)(=O)NCC3CCC(C(=O)Nc4ccc(C)cn4)CC3)cc21 (stereo not drawn),cell number change,,-25.4%
same,AC50,[2],"0.184 µM [falling, full curve, poor fit]"
same,AC50,[1],"20.6 µM [falling, single point]"
COc1cc(NC(=O)c2ccc(Cl)cc2Cl)ccc1-c1cc2ccccc2oc1=O,cell number change,,-13.7%
COc1ccccc1NC(=O)c1nn(-c2ccccc2)ccc1=O,cell number change,,41.9%
same,AC50,[2],"29.1 µM [rising, single point]"
Cc1cc(C)cc(CC2CC(=O)N(c3ccc4c(c3)OCCO4)C2=O)c1 (stereo not drawn),cell number change,,14.5%
same,AC50,[1],"18.4 µM [rising, single point]"
CCn1nc(NC(=O)COC)c2cc3cccc(C)c3nc21,cell number change,,23.4%
same,AC50,[2],"0.651 µM [rising, full curve, poor fit]"
O=C(NCCc1ccccc1)C1CCN(C(=O)c2sccc2-n2cccc2)CC1,cell number change,,43.7%
same,AC50,[2],"13 µM [rising, partial curve, poor fit]"
same,AC50,[1],"16.4 µM [rising, partial curve]"
Cc1ccc(S(=O)(=O)NCCc2nnc3ccc(SCc4cccnc4)nn23)cc1,cell number change,,25.5%
same,AC50,[1],"6.51 µM [rising, single point]"
COc1cccc(C2CC(c3ccc(Br)cc3)=NN2C(=O)c2ccncc2)c1OC (stereo not drawn),cell number change,,-0.701%
same,AC50,[1],"29.1 µM [falling, single point]"
COc1ccc(S(=O)(=O)NCc2ccc(F)cc2)cc1OC,cell number change,,1.54%
same,AC50,[1],"5.62 µM [falling, single point]"
NS(=O)(=O)c1ccc(NC(=O)CSc2n[nH]c(=O)n2Cc2ccccc2)cc1,cell number change,,8.82%
same,AC50,[2],"6.51 µM [rising, single point]"
same,AC50,[1],"3.66 µM [rising, single point]"
CCOC(=O)c1cnc(SCC(=O)NNC(=O)c2ccco2)nc1N,cell number change,,4.35%
O=C(/C=C/C=C/c1ccccc1)c1ccco1,cell number change,,40.4%
same,AC50,[2],"29.1 µM [rising, single point]"
same,AC50,[1],"29.1 µM [rising, single point]"
N#C/C(=C\c1ccc(F)cc1F)S(=O)(=O)c1ccccn1,cell number change,,18.9%
same,AC50,[2],"0.146 µM [falling, full curve, poor fit]"
same,AC50,[1],"0.461 µM [falling, single point]"
CCC(C)c1ccc(NC(=S)N2CCCC2)cc1 (stereo not drawn),cell number change,,-0.867%
COc1ccc(OC)c(C(C)NC(C)=O)c1 (stereo not drawn),cell number change,,2.1%
same,AC50,[1],"0.00517 µM [falling, full curve, poor fit]"
CSCCC(NC(=O)c1cccc(C)c1)C(=O)O (stereo not drawn),cell number change,,14.9%
same,AC50,[1],"0.00651 µM [falling, full curve, poor fit]"
O=C(Nc1cccc(Cl)c1N1CCCCC1)c1ccc(N2CCOCC2)c([N+](=O)[O-])c1,cell number change,,-1.61%
same,AC50,[1],"0.731 µM [rising, single point]"
O=C(COc1ccccc1)Nc1nc(-c2cccnc2)cs1,cell number change,,-4.02%
same,AC50,[1],"0.517 µM [rising, partial curve]"
O=c1c2ccccc2ncn1C1CCCCC1,cell number change,,-1.5%
same,AC50,[1],"14.6 µM [rising, partial curve]"
C/C(=N/O)c1ccc(N2C(=O)C3C4C=CC(C3C2=O)C2C3C(=O)N(c5ccc(/C(C)=N/O)cc5)C(=O)C3C42)cc1 (stereo not drawn),cell number change,,1.47%
same,AC50,[2],"0.0058 µM [falling, full curve, poor fit]"
same,AC50,[1],"0.0058 µM [falling, full curve, poor fit]"
CCCn1c(CN2CCCCC2C)nc2c1c(=O)n(C)c(=O)n2C (stereo not drawn),cell number change,,3.25%
same,AC50,[1],"0.651 µM [falling, single point]"
COc1ccc(C(=O)C2CCN(CC(=O)NCc3ccccc3)CC2)cc1,cell number change,,8.82%
Cc1nn(-c2ccccc2)c(C)c1C=O,cell number change,,-6.94%
same,AC50,[1],"0.164 µM [falling, full curve]"
N/C(=N\OS(=O)(=O)c1cc(Cl)ccc1Cl)c1ccncc1,cell number change,,-140%
same,AC50,[2],"29.1 µM [falling, single point]"
O=C(O)CCNS(=O)(=O)c1ccccc1C(F)(F)F,cell number change,,39.5%
same,AC50,[1],"0.092 µM [falling, full curve]"

# Exported with bars between the fields: entries from further up.
compound | measurement | setting | value
CC1=C(C(=O)OC(C)C)C(c2ccc(Br)s2)NC(=O)N1 (stereo not drawn) | cell number change |  | -18.6%
same | AC50 | [1] | 16.4 µM [rising, partial curve]
CCN1CCN(c2ccc(S(=O)(=O)N3CCOCC3)cc2NC(=O)c2sccc2C)CC1 | cell number change |  | 36.2%
same | AC50 | [2] | 9.2 µM [rising, partial curve, poor fit]
same | AC50 | [1] | 2.91 µM [rising, full curve, poor fit]
